According to article PMC2886121:
Results are given in words; binding and its absence hold for the method and conditions named. Binding calls can cover weak binding; strength is not graded here. For part of these data: Tags and fused reporters may be left off the sequences shown. For part of these data: Binding seen in cells or lysates may run through a third protein.

Protein sequences, listed by entry. Tags and fused reporters are not part of them. Lines headed by an entry give the natural chain unless they say otherwise; changes in a name come on top.
UniProt P25116: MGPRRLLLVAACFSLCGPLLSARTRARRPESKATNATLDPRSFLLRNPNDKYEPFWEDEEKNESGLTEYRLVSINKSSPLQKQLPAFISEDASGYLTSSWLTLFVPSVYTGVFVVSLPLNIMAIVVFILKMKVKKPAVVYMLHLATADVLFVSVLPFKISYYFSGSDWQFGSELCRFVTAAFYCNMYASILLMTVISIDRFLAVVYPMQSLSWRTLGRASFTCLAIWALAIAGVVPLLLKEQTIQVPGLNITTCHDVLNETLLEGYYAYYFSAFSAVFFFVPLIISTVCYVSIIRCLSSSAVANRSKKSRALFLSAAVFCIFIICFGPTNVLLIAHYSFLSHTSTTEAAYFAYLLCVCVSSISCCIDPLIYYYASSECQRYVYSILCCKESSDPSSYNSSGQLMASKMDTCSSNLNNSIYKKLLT

Columns and labels:
GST-PH-Etk/Bmx = target: T1, GST-PH-Etk/Bmx (UniProt P51813); test: pull-down; purified PAR1 C-tail fragments (cleaved from GST by thrombin) applied to GST-PH-Etk/Bmx column or GST beads; incubation 4 h; blot with anti-PAR1 (ATAP); both purified
T1 sequence: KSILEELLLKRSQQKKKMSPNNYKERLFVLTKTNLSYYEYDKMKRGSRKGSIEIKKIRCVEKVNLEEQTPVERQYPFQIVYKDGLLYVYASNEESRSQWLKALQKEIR

[1] = target: GST-PAR1 C-tail Y381A (human) (UniProt P25116); test: pull-down; GST-PAR1-C-tail columns (wt, Y381A, Y383A) or GST control; lysates of HEK293 cells transfected with Etk/Bmx or kinase-inactive Etk/Bmx (KQ) applied; blot with anti-Etk/Bmx; only the target purified
[2] = target: GST-PAR1 C-tail Y383A (human) (UniProt P25116); test: as above

purified PAR1 C-tail Y381A, cleaved from GST-C-tail (from UniProt P25116) (domain or fragment)
binding (GST-PH-Etk/Bmx): binds

B1: Etk/Bmx (wt), transfected in HEK293 cells (enzyme, UniProt P51813 1-675)
chain: MDTKSILEELLLKRSQQKKKMSPNNYKERLFVLTKTNLSYYEYDKMKRGSRKGSIEIKKIRCVEKVNLEEQTPVERQYPFQIVYKDGLLYVYASNEESRSQWLKALQKEIRGNPHLLVKYHSGFFVDGKFLCCQQSCKAAPGCTLWEAYANLHTAVNEEKHRVPTFPDRVLKIPRAVPVLKMDAPSSSTTLAQYDNESKKNYGSQPPSSSTSLAQYDSNSKKIYGSQPNFNMQYIPREDFPDWWQVRKLKSSSSSEDVASSNQKERNVNHTTSKISWEFPESSSSEEEENLDDYDWFAGNISRSQSEQLLRQKGKEGAFMVRNSSQVGMYTVSLFSKAVNDKKGTVKHYHVHTNAENKLYLAENYCFDSIPKLIHYHQHNSAGMITRLRHPVSTKANKVPDSVSLGNGIWELKREEITLLKELGSGQFGVVQLGKWKGQYDVAVKMIKEGSMSEDEFFQEAQTMMKLSHPKLVKFYGVCSKEYPIYIVTEYISNGCLLNYLRSHGKGLEPSQLLEMCYDVCEGMAFLESHQFIHRDLAARNCLVDRDLCVKVSDFGMTRYVLDDQYVSSVGTKFPVKWSAPEVFHYFKYSSKSDVWAFGILMWEVFSLGKQPYDLYDNSQVVLKVSQGHRLYRPHLASDTIYQIMYSCWHELPEKRPTFQQLLSSIEPLREKDKH
binding [1]: binds
binding [2]: binds
